Assay results reported in PubChem BioAssay AID901 (National Center for Advancing Translational Sciences (NCATS), 2007).
Some of the results follow. Further columns of the screen follow, without active or inactive calls. Most of these compounds were active or inconclusive in the main read-out, so they are no random draw. Words in brackets tell the shape of the fitted curve; partial curves, single points and poor fits give uncertain potencies.

Assay: qHTS Assay for Identifying the Cell-Membrane Permeable IMPase Inhibitors
Details: CHO-M1 cells, IP1 accumulation, HTRF TR-FRET ratio; measured here: donor channel 620 nm AC50

SMILES | AC50
CCOC(=O)C(N)CSC1CC(=O)N(c2ccc(C(=O)OC)cc2)C1=O (stereo not drawn) | 0.0158 µM [rising, full curve, poor fit]
CN(C)C(=S)NCc1ccccc1 | 2.51 µM [falling, full curve]
N/C(=N\OC(=O)c1ccccc1Cl)c1cccnc1 | 15.8 µM [rising, single point]
Clc1ccc(C2=Nn3c(nnc3-c3cccs3)SC2)cc1 | 5.01 µM [falling, single point]
COc1ccc(C(=O)NCCn2ccc3ccccc32)c(OC)c1 | 6.31 µM [rising, partial curve, poor fit]
CCOC(=O)N1CCN(c2cc(=O)n(C3CCCCC3)c(=O)[nH]2)CC1 | 0.0316 µM [rising, full curve, poor fit]
CC1=CC2=C(OC1N(C)C)c1cccc3cccc(c13)C2=O (stereo not drawn) | 25.1 µM [rising, partial curve]
Cc1ccc(N/C(N)=N/c2nc(CSc3ccc(C)cc3)cc(=O)[nH]2)cc1 | 0.0126 µM [falling, full curve, poor fit]
Cc1cc(-c2ccccc2)nnc1NCCN1CCOCC1 | 0.00251 µM [falling, full curve, poor fit]
CSCC[C@H](NC(=O)NCCC1=CCCCC1)C(=O)O | 15.8 µM [falling, partial curve]
O=C(O)CC(NS(=O)(=O)c1cccc2nsnc12)c1ccc(F)cc1 (stereo not drawn) | 3.98 µM [rising, full curve, poor fit]
O=C(CSc1nnc2c(n1)[nH]c1ccccc12)OCc1ccccc1 | 31.6 µM [falling, single point]
Cc1[nH]c2ccc(-c3nnc(SCC(=O)c4ccc(F)cc4)o3)cc2c1C | 0.631 µM [rising, full curve, poor fit]
CCc1nnc2c3ccccc3nc(Nc3ccccc3OC)n12 | 5.62 µM [rising, single point]
COCCCN1C(=O)C(O)=C(C(=O)c2ccc(C)o2)C1c1cccc(Br)c1 (stereo not drawn) | 10 µM [rising, partial curve]
COc1cccc(NC(=O)CCSc2ccc3ccccc3n2)c1 | 12.6 µM [rising, single point]
Cc1cc(C)cc(OCC(=O)Nc2ccc3c(c2)C(=O)c2ccccc2C3=O)c1 | 22.4 µM [rising, single point]
Cc1ccc(Cn2ccc(NC(=O)c3cc(-c4ccc(Br)cc4)on3)n2)cc1 | 0.794 µM [falling, full curve]
CC1CN(S(=O)(=O)c2cccc(-c3cn4cccnc4n3)c2)CC(C)O1 (stereo not drawn) | 10 µM [rising, partial curve, poor fit]
CC(=O)C1=C(C)Nc2ncnn2C1c1ccccc1Cl (stereo not drawn) | 5.01 µM [rising, partial curve, poor fit]
CSc1ccccc1NC(=O)CSCc1ccc(Br)cc1 | 0.1 µM [falling, full curve, poor fit]
C/C(=N\NC(=O)c1c(Br)c(C)nn1C)c1ccc(NC(=O)C(C)Oc2ccc(Cl)cc2C)cc1 (stereo not drawn) | 0.01 µM [rising, full curve, poor fit]

Some values from the list:
Value of `CSc1ccccc1NC(=O)CSCc1ccc(Br)cc1` under AC50: 0.1 µM [falling, full curve, poor fit]
Value of `COc1ccc(C(=O)NCCn2ccc3ccccc32)c(OC)c1` under AC50: 6.31 µM [rising, partial curve, poor fit]
Value of `CCc1nnc2c3ccccc3nc(Nc3ccccc3OC)n12` under AC50: 5.62 µM [rising, single point]

(next part)

SMILES | AC50
COc1cc(Cl)c(C)cc1NC(c1ccccc1)c1nnc(-c2ccccc2Cl)o1 (stereo not drawn) | 0.0501 µM [falling, full curve, poor fit]
CSc1nnc(-c2ccc(S(=O)(=O)N3CCCC3)cc2)n1C | 0.00355 µM [falling, full curve]
COCc1nnc(NS(=O)(=O)c2ccc(C)cc2)s1 | 5.62 µM [rising, single point]
Cc1ccc(C(=O)Nc2ccc(S(=O)(=O)N3CCc4ccccc43)cc2)o1 | 0.0251 µM [falling, full curve]
COC(=O)CSc1ncnc2c1cnn2Cc1ccccc1 | 25.1 µM [rising, partial curve]
CCn1c(=O)cc(SCC(=O)NCCN2CCN(Cc3ccccc3)CC2)c2ccccc21 | 10 µM [rising, partial curve]
N#Cc1c(-c2ccco2)nc(SCc2ccc(F)cc2)[nH]c1=O | 3.16 µM [rising, single point]
CCN(CC)CCN1C(=O)C(O)=C(C(=O)c2cc3ccccc3o2)C1c1cccnc1 (stereo not drawn) | 12.6 µM [rising, partial curve]
O=C(COC(=O)c1ccc[nH]c1=O)NCC1CCCO1 (stereo not drawn) | 0.794 µM [falling, full curve]
CCCCNC(=S)NNC(=O)c1nn(C)cc1Cl | 10 µM [falling, single point]
COc1cccc(CN(C)C(=O)Nc2cccc(C(F)(F)F)c2)c1OC | 0.0631 µM [rising, full curve, poor fit]
COc1ccc(-c2nc(C)ncc2N=Nc2ccccc2)cc1 | 31.6 µM [falling, single point]
O=C(Cn1nnc(-c2cccc(C(F)(F)F)c2)n1)N1CCOCC1 | 3.16 µM [falling, partial curve]
COc1ccc(C(=O)COC(=O)c2cc(-c3ccccc3)nc3c(C)cccc23)cc1 | 35.5 µM [falling, single point]
Cc1ccc(NC(=O)CSc2nc(-c3ccc(F)cc3)cc(C(F)(F)F)c2C#N)cc1 | 1.78 µM [rising, partial curve]
O=C(COC(=O)CSc1cccc2cccc(Cl)c12)Nc1ncc(C(F)(F)F)cc1Cl | 10 µM [rising, partial curve]
COc1ccc(-c2c(C#N)c(SCC(=O)Nc3ccccc3C)nc(C)c2C(=O)Nc2ccccc2)cc1OC | 31.6 µM [rising, single point]
COC(=O)Nc1nnc(Cc2ccc(OC)cc2)s1 | 0.0631 µM [rising, full curve, poor fit]
CCN(Cc1cc2ccccc2[nH]c1=O)C(=O)C(C)C | 0.0126 µM [rising, full curve, poor fit]
CC(C)Cc1nc2oc3c(NCc4cccnc4)ncnc3c2c2c1CCC2 | 0.398 µM [falling, full curve, poor fit]
CCOC(=O)c1sc(NC(=O)c2cncc(Br)c2)nc1C | 2.51 µM [falling, partial curve]
